For five substances, binding results are on record in article PMC10721602.

By UniProt entry, the sequences of proteins in these tests, tags left out. Where a name states a change or a piece, a line headed by the entry shows the natural chain unless it says otherwise.
UniProt P78536: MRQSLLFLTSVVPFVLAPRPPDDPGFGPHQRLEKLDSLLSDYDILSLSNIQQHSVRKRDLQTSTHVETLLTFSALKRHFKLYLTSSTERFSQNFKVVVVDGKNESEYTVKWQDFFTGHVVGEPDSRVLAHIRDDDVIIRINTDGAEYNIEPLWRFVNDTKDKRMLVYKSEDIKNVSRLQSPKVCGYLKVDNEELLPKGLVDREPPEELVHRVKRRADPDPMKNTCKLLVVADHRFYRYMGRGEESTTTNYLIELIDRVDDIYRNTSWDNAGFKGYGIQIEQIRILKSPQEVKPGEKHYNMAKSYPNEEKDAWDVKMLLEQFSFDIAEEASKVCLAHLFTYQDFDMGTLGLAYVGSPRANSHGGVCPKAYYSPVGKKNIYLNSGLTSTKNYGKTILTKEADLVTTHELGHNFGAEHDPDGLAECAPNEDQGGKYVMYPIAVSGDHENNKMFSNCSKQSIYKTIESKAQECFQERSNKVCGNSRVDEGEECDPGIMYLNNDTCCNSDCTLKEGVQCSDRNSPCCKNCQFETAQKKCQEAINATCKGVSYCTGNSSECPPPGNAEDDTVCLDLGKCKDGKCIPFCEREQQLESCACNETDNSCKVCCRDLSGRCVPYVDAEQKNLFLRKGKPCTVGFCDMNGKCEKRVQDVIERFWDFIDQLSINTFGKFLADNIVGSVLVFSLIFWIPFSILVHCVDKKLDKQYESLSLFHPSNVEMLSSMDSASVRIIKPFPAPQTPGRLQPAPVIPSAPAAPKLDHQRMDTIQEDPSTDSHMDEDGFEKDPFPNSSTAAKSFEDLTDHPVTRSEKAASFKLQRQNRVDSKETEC

Experiment [1] concerns the target bls-EGFR extracellular domain (human) (UniProt P00533). In words: AlphaScreen or HTRF; biotinylated bls-EGFR extracellular domain and FLAG fusion proteins from the wheat cell-free system mixed in 100 mM Tris-HCl pH 8.0, 1 mg/mL BSA, 100 mM NaCl, 0.1% Tween20, 26 °C 1 h; streptavidin donor and protein A acceptor beads. For orientation: Bead proximity is the source of the signal in Alpha formats.

The target in experiment [2] is endogenous EGFR of A431 and NCI-H226 cells (human (endogenous in A431 and NCI-H226)) (UniProt P00533). In words: proximity ligation; Duolink PLA on fixed A431 cells, endogenous proteins, anti-EGFR (EMab-134) with anti-PTK7, anti-insulin receptor alpha or anti-ADAM17; DMSO, EGF or EGF+gefitinib.
The target in experiment [3] is EGFR-LgBiT (human) (UniProt P00533). In words: split reporter; NanoBiT in live HEK293T cells: PTK7-SmBiT or INSR-SmBiT with EGFR-LgBiT; DHFR-LgBiT as control.

No constants are given. Whether binding was seen depends on the method and setting. For some assays here: Binding seen in cells or lysates may run through a third protein. Some binding calls cover weakened binding; strength is not graded here.

In the case of “FLAG-ADAM17 (from UniProt P78536 1-824) (enzyme)”, the binding result in experiment [1] was “binds”.
Take “INSR (insulin receptor), endogenous (from UniProt P06213 28-1382)”: the binding entry in experiment [2] is on record as “binds”.
As to “INSR-SmBiT (from UniProt P06213 28-1382) (receptor)”, in experiment [3], the binding entry was “binds”.
As to “FLAG-INSR alpha [28-758aa] (from UniProt P06213 28-758) (domain or fragment)”, in experiment [1], the binding entry is “binds”.
Take “ADAM17 (disintegrin and metalloproteinase domain-containing protein 17), endogenous (from UniProt P78536 215-824) (enzyme)”: the binding result in experiment [2] is on record as “binds”.
